Here are results for 29 sequences from PubChem BioAssay AID1347423 (Functional Genomics Laboratory (NCATS/FGL), 2020).

Hit rate of the full screen: of about 52,000 sequences, about 210 (0.4%) were called active.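 How the source made its calls: active means gene whose silencing raises cell survival under the drug, median off-target-corrected z-score across its silencing RNAs 2 or more; inactive means the rest.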 The list shows a part of the results.

The nature of the test: Resistance to Poly (ADP-Ribose) Polymerase inhibitor: Gene Identification via Genome-wide siRNA Screen. The following applies: mouse BRCA2 R2336H ES cells, olaparib, CellTiter-Glo viability; hits give high values. The procedure, abridged: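 Mouse BRCA2 R2336H ES cells were reverse-transfected with siRNA (20 nM final), treated at 48 h with 500 nM olaparib, and read by CellTiter-Glo after 72 h. Scores: MAD-based z per siRNA, median per gene, seed off-target correction.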
In the case of “GCCAGAAACUAAUGAGAUCTT against 1110001E17Rik”, the z-score is active: 1.17. The value for “GGAUGAAUGGUUUAUUGUUTT against 5730461K03Rik” was inactive: -1.29.

In the case of GGAUCUUGAGUUUACCAAATT against Uqcrc2, the z-score is inactive: -0.951. On to CCUCUUCCAGAGAUGUAGCTT against Fos, for which the z-score is inactive: 0.118.

In the case of GGCUACGGUGAUAGAGAUGTT against Rbmxrt, the z-score is inactive: -0.583. CCCGAGAACAUCUUGUACGTT against Rps6ka4: the z-score was inactive: -0.639. Then GGGUAUUUUACCACUACUUTT against Psg23, with inactive: 0.898; and GGGAGUUUAUUCAAAAGUGTT against Nrbp, with inactive: 0.522. Then GGAUCAUUUCAAAACACACTT against Kcnh1, with inactive: 0.544; and GGAGAUGCACAAAAGAAUATT against Slc35d1, with inactive: -0.0886; and “GGACAAAGAAACUCAUAGGTT against A530021J07”, with inactive: 1.45.

In the case of GGAAUUCUUCAGGUGGAUATT against BC013529, the z-score is inactive: -0.474. In the case of “GCCAUAAGAUGCUACAGUGTT against 2310057H16Rik”, the z-score is inactive: 0.168. Then GCGGACUACUAUGCUAAAGTT against Tgfb1, with inactive: 0.757.

Take GGGCCAAAUAGCUAUGCAGTT against BC008184: the z-score is inactive: -0.343. Regarding “GCGACACAUAUUAACCAAATT against 8430408H12Rik”, the z-score is inactive: 0.0757. Then GGAGUAGAUCCAAAUGCACTT against Klhl4, with inactive: 1.2. As to GCACCAGUGAUAUUUUUACTT against Tas2r110, the z-score is inactive: 0.19. Consider CGACAUGCCUAUCUACAUGTT against Epha2, for which the z-score is inactive: 0.0637.

Regarding GGCCGAGUAGCUGAUGAAATT against Dhx35, the z-score is inactive: 0.61. Then CCUUUGACUAAUCGUUUUGTT against Cln2, with inactive: 0.812; and “GGAGAUCUCCAUCAUCACCTT against 4930511O11Rik”, with inactive: -0.697. Regarding GGUCAUCGGGAGGUUUGAATT against Nfkbil1, the z-score was inactive: 1.23. Then GGGAUACGGUCCACACUAUTT against Arl1, with inactive: -1.33; and GGGAAAGCAAAAAUAAUCUTT against Gp38, with inactive: -0.688; and GGAGCAAGAUGAAGAAGAGTT against Ticam2, with inactive: -2.14.

Consider CGAGCAUCUGUUAUGUACATT against Olfr19, for which the z-score is inactive: 1.01. Turning to GGUAUUGGUUAAGUAUCACTT against Sumo3, the z-score is inactive: 0.979. Regarding GGAAUUUUCUGAGAUUCGGTT against Il20, the z-score was inactive: 0.299.
